These are yes or no findings as the source states them, for the method shown. For part of these data: In cells and extracts the contact can be indirect. Some entries that bind do so weakly or less than the wild type.
How the values were obtained:
[1] = target: GST-Fas (GST fusion protein containing the cytoplasmic domain of Fas) (UniProt P25445); test: GST pull-down from lysates of transfected 293T cells
[2] = target: T1, GAL4 DNA-binding domain fused to the cytoplasmic tail of the human Fas antigen (GAL4bd-Fas) (human) (UniProt P04386+P25445); test: yeast two-hybrid
[3] = target: T1, GAL4 DNA-binding domain fused to the cytoplasmic tail of the human Fas antigen (GAL4bd-Fas) (human); test: yeast two-hybrid, β-galactosidase filter assay in Y190 yeast
[4] = target: GST-Fas (GST fusion protein containing the cytoplasmic domain of Fas) (UniProt P25445); test: GST pull-down on glutathione-Sepharose beads
[5] = target: GST-Fas (GST fusion protein containing the cytoplasmic domain of Fas) (UniProt P25445); test: GST pull-down from lysates of 293T cells expressing HA-FADD, then anti-HA immunoprecipitation
[6] = target: GST-Fas (GST fusion protein containing the cytoplasmic domain of Fas) (UniProt P25445); test: GST pull-down of 35S-labeled in vitro translated FADD, SDS-PAGE and autoradiography

Chains of the proteins cited; added tags and fusions are not shown. Lines headed by an entry give the natural chain unless they say otherwise; changes in a name come on top. Residues count along the entry.
UniProt P25445, residues 191-335: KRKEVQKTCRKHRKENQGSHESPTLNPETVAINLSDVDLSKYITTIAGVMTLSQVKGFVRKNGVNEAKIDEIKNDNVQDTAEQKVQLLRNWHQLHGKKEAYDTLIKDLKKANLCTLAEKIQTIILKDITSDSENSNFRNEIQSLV
UniProt P04386: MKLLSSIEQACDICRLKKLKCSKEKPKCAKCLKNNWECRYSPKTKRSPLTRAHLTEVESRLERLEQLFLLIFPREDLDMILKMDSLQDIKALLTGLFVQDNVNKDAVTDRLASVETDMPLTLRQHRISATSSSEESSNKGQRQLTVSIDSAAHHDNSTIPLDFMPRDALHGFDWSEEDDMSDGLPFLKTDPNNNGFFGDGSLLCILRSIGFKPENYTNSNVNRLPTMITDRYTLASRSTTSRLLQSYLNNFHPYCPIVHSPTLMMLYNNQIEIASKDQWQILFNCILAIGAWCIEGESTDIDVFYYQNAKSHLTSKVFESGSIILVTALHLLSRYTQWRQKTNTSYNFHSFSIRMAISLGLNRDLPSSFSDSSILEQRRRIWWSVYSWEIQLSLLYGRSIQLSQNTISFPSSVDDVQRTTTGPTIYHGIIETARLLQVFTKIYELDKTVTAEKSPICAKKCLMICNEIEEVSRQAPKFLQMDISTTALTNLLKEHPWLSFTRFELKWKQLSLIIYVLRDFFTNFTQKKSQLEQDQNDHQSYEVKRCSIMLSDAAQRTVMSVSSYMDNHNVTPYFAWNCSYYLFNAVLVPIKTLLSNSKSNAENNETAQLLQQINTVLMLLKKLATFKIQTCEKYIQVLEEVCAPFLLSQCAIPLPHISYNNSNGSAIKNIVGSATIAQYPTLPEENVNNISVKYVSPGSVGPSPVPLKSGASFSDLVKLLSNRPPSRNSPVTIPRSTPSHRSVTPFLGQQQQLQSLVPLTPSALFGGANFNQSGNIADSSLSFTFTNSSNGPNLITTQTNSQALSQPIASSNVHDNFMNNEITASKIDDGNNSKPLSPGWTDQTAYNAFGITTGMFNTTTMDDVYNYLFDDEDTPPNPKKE
UniProt Q13158: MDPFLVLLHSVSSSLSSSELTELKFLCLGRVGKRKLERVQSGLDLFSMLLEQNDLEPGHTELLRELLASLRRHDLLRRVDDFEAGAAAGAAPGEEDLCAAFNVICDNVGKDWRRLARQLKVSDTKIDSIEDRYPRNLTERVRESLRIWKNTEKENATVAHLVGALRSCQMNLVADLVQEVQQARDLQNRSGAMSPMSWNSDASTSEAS

## AU1-epitope tagged FADD (AU1-FADD) (from UniProt Q13158 1-208)
[1]
  binding: binds

## GAL4 activation domain-FADD fusion protein (GAL4ad-FADD) (from UniProt Q13158 1-208)
[2]
  binding: binds
[3]
  binding: binds

## HA-epitope tagged FADD (HA-FADD) (from UniProt Q13158 1-208)
[4]
  binding: binds
[5]
  binding: binds
[6]
  binding: binds
